In article PMC10931804:
These are yes or no findings as the source states them, for the method shown. Binding seen in cells or lysates may run through a third protein. Some results given as binding are weak or reduced against the parent protein; the word gives no strength. Where a sequence is shown, tags or fusion partners need not be part of it.

The chains behind the UniProt entries cited, without tags or fusion partners.
UniProt P18848: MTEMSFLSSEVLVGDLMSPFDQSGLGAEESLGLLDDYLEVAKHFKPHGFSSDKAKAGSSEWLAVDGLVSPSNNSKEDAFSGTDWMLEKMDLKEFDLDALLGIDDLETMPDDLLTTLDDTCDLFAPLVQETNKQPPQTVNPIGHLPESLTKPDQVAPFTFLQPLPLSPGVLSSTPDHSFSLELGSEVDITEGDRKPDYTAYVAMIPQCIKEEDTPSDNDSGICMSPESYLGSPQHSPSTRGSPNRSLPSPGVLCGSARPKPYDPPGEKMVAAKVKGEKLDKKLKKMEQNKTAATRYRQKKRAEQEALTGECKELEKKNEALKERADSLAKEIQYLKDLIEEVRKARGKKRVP

Target: activating transcription factor 4 (ATF4) (UniProt P18848)
Experiment: co-IP; MC3T3-E1 cells 48 h after plasmid transfection, lysed in RIPA buffer with PMSF; 1 mg of protein with protein A + G-agarose beads at 4 °C overnight; blots with anti-TMEM119 and anti-ATF4; the precipitating antibody is not stated

binding	Binder
binds	transmembrane protein 119 (TMEM119) mutant c.G143A, p.S48L, FLAG-tagged (pcDNA3.1-TMEM119-FLAG-MUT) (protein, UniProt Q4V9L6 26-283) RSVPLKATFLEDVAGSGEAEGSLASSPSLPPPWTPALSPTSMGPQPITLGGPSPPTNFLDGIVDFFRQYVMLIAVVGSLAFLLMFIVCAAVITRQKQKASAYYPSSFPKKKYVDQSDRAGGPRAFSEVPDRAPDSRPEEALDSSRQLQADILAATQNLKSPTRAALGGGDGARMVEGRGAEEEEKGSQEGDQEVQGHGVPVETPEAQEEPCSGVLEGAVVAGEGQGELEGSLLLAQEAQGPVGPPESPCACSSVHPSV
binds	transmembrane protein 119 (TMEM119), wild type, FLAG-tagged (pcDNA3.1-TMEM119-FLAG-WT) (protein, UniProt Q4V9L6 26-283) RSVPLKATFLEDVAGSGEAEGSSASSPSLPPPWTPALSPTSMGPQPITLGGPSPPTNFLDGIVDFFRQYVMLIAVVGSLAFLLMFIVCAAVITRQKQKASAYYPSSFPKKKYVDQSDRAGGPRAFSEVPDRAPDSRPEEALDSSRQLQADILAATQNLKSPTRAALGGGDGARMVEGRGAEEEEKGSQEGDQEVQGHGVPVETPEAQEEPCSGVLEGAVVAGEGQGELEGSLLLAQEAQGPVGPPESPCACSSVHPSV
